{
  "source": "paper PMC12393150",
  "assay_in_all_cases": "split reporter; BIFC in Nicotiana benthamiana leaf cells: SCC (SCFP3A C155)-SPF30.1 co-expressed with partner-SCN (SCFP3A N173) by infiltration of mixed Agrobacterium GV3101 cultures; cyan fluorescence read by confocal microscopy after two days",
  "key": {"[1]": {"biological_target": "T1, U2AF65a (Arabidopsis U2 snRNP auxiliary factor large subunit a) (Arabidopsis thaliana) (UniProt O23212)", "T1 sequence": "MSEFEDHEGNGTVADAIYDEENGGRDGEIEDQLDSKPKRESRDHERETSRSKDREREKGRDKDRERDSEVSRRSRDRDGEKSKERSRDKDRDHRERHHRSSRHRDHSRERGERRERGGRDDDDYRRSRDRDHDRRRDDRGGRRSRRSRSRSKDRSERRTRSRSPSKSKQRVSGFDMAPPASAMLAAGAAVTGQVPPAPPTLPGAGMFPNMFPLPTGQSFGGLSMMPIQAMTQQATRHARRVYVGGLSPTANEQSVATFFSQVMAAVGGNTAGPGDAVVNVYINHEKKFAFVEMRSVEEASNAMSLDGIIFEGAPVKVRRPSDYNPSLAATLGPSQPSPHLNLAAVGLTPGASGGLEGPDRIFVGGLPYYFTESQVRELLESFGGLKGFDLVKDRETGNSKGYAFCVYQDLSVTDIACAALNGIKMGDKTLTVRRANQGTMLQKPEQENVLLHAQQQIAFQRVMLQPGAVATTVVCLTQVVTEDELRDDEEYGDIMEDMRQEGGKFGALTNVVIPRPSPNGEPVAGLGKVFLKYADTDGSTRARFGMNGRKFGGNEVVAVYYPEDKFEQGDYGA"}, "[2]": {"biological_target": "T2, U1A (Arabidopsis U1 snRNP protein A) (Arabidopsis thaliana) (UniProt Q39244)", "T2 sequence": "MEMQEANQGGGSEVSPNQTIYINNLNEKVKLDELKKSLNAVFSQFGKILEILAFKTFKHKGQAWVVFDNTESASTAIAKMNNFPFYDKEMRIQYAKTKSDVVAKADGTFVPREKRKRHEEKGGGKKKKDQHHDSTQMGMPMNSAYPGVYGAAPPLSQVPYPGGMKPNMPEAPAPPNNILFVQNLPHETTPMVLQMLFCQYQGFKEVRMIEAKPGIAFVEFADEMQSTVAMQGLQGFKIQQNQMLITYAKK"}, "[3]": {"biological_target": "T3, U2A (Arabidopsis U2 snRNP protein A') (Arabidopsis thaliana) (UniProt P43333)", "T3 sequence": "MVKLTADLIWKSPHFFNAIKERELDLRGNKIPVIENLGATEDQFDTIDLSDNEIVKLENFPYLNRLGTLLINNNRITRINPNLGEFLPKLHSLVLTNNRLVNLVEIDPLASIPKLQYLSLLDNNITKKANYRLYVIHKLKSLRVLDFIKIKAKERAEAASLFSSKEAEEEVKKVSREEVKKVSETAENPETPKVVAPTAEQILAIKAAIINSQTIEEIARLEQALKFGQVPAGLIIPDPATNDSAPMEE"}, "[4]": {"biological_target": "T4, U1-70K (Arabidopsis U1 snRNP 70K protein) (Arabidopsis thaliana) (UniProt Q42404)", "T4 sequence": "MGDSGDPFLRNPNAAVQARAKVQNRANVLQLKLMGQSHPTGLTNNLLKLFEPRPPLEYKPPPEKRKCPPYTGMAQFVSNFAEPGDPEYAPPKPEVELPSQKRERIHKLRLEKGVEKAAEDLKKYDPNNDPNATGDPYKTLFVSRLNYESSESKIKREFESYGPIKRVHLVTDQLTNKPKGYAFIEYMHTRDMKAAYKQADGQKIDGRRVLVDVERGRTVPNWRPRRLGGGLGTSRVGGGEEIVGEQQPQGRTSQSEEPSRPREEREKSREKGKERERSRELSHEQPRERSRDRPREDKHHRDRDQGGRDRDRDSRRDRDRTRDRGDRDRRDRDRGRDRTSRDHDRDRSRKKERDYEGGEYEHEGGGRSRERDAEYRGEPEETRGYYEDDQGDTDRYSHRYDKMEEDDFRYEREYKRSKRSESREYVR"}, "[5]": {"biological_target": "T5, RNA-DIRECTED DNA …ON 16 (RDM16), the Arabidopsis homolog of hPrp3 (Arabidopsis thaliana) (UniProt Q9C7E7)", "T5 sequence": "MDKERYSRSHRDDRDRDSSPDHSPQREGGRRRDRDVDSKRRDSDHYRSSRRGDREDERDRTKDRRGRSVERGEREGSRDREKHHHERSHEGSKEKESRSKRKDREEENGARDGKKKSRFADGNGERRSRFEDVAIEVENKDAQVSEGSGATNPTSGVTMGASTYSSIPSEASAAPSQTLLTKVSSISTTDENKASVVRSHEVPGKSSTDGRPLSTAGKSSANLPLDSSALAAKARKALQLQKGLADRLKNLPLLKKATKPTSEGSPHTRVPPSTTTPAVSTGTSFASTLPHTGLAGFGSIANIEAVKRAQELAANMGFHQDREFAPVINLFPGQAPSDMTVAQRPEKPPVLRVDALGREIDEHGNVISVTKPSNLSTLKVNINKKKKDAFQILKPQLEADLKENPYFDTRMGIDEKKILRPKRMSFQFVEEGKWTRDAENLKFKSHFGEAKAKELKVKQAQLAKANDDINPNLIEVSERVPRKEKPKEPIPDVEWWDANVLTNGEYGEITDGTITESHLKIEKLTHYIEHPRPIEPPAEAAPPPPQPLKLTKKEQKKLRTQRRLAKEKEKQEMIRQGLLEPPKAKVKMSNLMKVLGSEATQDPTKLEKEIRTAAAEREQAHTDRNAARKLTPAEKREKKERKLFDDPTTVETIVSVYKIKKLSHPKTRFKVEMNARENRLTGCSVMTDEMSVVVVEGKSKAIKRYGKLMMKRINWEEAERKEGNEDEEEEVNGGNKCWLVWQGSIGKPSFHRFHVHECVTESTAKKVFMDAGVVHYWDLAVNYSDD"}, "[6]": {"biological_target": "T6, U2AF35b (Arabidopsis U2 snRNP auxiliary factor small subunit b) (Arabidopsis thaliana) (UniProt Q9FMY5)", "T6 sequence": "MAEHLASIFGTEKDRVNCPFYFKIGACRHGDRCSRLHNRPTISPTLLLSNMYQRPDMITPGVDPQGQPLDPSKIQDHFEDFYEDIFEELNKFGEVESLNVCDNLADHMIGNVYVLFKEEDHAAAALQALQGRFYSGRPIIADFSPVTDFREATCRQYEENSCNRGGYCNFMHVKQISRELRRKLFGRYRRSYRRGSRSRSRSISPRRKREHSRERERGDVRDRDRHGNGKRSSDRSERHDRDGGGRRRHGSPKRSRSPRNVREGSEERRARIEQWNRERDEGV"}},
  "note": "Results are given in words; binding and its absence hold for the method and conditions named. Binding seen in cells or lysates may run through a third protein. For part of these data: Binding calls can cover weak binding; strength is not graded here.",
  "data": [
    {"substance": "Splicing factor 30, isoform SPF30.1 (Arabidopsis)", "values": [
      {"measurement": "binding", "setting": "[1]", "result": "binds"},
      {"measurement": "binding", "setting": "[2]", "result": "binds"},
      {"measurement": "binding", "setting": "[3]", "result": "no binding"},
      {"measurement": "binding", "setting": "[4]", "result": "no binding"},
      {"measurement": "binding", "setting": "[5]", "result": "binds"},
      {"measurement": "binding", "setting": "[6]", "result": "binds"}
    ]}
  ]
}
